According to publication PMC12359225:
No constants are given. Whether binding was seen depends on the method and setting. Binding seen in cells or lysates may run through a third protein. Binding can be weak; no strength is given.

By UniProt entry, the sequences of proteins in these tests, tags left out. Where a name states a change or a piece, a line headed by the entry shows the natural chain unless it says otherwise.
UniProt P63330: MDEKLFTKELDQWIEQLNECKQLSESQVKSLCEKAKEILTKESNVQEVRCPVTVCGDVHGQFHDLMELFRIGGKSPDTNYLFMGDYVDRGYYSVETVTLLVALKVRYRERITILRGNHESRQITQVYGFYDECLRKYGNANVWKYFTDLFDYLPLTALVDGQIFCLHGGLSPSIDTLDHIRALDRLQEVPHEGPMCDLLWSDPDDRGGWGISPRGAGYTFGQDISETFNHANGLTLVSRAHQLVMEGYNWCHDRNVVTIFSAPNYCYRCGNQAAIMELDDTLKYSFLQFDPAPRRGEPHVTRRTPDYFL

Target: T1, CREB-regulated transcriptional coactivator 2 (mouse (endogenous in primary calvarial osteoblasts)) (UniProt Q3U182)
T1 sequence: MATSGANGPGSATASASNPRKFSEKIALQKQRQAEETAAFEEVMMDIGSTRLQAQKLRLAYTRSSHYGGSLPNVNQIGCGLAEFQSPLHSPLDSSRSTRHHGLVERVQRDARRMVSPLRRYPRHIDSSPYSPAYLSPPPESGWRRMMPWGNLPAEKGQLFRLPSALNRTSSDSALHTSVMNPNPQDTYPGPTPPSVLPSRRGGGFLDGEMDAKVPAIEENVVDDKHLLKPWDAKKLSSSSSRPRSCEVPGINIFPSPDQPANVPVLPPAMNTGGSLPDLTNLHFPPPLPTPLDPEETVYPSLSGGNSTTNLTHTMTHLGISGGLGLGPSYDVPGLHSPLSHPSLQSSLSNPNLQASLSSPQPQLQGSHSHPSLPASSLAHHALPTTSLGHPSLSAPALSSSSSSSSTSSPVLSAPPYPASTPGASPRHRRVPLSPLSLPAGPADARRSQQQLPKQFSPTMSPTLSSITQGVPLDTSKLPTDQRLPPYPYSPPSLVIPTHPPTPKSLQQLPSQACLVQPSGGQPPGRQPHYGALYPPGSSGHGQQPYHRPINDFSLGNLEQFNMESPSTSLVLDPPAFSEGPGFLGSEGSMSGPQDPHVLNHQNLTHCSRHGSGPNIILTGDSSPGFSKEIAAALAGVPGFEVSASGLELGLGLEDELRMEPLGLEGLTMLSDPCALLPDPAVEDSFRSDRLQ
Experiment: co-IP; endogenous proteins; lysates of mature primary mouse calvarial osteoblasts, basal or treated with 10 nM PTH (1-34) for 15 min; lysis buffer 0.5% Nonidet P-40, 50 mM Tris pH 8.0, 150 mM NaCl, 1 mM EDTA; antibody and protein AG-agarose overnight at 4 °C; immunoblot

## protein phosphatase 1 (enzyme)
  binding: binds

## protein phosphatase 2 (from UniProt P63330) (enzyme)
  binding: binds
